Reference: patent US20140336202A1
No constants are given. Whether binding was seen depends on the method and setting. In cells and extracts the contact can be indirect. Some entries that bind do so weakly or less than the wild type.

By UniProt entry, the sequences of proteins in these tests, tags left out. Where a name states a change or a piece, a line headed by the entry shows the natural chain unless it says otherwise.
UniProt Q00987: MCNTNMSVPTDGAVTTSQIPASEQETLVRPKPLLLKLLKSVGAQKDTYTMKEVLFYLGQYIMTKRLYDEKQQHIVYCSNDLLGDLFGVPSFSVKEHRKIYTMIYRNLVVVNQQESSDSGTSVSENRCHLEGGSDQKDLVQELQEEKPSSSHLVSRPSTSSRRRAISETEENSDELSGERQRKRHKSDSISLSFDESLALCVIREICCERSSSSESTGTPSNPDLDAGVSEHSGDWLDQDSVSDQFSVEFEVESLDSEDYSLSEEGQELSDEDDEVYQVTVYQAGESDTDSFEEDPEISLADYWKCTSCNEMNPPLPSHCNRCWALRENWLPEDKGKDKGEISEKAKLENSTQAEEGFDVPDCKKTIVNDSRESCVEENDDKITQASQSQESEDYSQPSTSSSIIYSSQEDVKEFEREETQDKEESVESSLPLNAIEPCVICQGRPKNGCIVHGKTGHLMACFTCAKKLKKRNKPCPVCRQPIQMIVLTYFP
UniProt Q7Z6Z7: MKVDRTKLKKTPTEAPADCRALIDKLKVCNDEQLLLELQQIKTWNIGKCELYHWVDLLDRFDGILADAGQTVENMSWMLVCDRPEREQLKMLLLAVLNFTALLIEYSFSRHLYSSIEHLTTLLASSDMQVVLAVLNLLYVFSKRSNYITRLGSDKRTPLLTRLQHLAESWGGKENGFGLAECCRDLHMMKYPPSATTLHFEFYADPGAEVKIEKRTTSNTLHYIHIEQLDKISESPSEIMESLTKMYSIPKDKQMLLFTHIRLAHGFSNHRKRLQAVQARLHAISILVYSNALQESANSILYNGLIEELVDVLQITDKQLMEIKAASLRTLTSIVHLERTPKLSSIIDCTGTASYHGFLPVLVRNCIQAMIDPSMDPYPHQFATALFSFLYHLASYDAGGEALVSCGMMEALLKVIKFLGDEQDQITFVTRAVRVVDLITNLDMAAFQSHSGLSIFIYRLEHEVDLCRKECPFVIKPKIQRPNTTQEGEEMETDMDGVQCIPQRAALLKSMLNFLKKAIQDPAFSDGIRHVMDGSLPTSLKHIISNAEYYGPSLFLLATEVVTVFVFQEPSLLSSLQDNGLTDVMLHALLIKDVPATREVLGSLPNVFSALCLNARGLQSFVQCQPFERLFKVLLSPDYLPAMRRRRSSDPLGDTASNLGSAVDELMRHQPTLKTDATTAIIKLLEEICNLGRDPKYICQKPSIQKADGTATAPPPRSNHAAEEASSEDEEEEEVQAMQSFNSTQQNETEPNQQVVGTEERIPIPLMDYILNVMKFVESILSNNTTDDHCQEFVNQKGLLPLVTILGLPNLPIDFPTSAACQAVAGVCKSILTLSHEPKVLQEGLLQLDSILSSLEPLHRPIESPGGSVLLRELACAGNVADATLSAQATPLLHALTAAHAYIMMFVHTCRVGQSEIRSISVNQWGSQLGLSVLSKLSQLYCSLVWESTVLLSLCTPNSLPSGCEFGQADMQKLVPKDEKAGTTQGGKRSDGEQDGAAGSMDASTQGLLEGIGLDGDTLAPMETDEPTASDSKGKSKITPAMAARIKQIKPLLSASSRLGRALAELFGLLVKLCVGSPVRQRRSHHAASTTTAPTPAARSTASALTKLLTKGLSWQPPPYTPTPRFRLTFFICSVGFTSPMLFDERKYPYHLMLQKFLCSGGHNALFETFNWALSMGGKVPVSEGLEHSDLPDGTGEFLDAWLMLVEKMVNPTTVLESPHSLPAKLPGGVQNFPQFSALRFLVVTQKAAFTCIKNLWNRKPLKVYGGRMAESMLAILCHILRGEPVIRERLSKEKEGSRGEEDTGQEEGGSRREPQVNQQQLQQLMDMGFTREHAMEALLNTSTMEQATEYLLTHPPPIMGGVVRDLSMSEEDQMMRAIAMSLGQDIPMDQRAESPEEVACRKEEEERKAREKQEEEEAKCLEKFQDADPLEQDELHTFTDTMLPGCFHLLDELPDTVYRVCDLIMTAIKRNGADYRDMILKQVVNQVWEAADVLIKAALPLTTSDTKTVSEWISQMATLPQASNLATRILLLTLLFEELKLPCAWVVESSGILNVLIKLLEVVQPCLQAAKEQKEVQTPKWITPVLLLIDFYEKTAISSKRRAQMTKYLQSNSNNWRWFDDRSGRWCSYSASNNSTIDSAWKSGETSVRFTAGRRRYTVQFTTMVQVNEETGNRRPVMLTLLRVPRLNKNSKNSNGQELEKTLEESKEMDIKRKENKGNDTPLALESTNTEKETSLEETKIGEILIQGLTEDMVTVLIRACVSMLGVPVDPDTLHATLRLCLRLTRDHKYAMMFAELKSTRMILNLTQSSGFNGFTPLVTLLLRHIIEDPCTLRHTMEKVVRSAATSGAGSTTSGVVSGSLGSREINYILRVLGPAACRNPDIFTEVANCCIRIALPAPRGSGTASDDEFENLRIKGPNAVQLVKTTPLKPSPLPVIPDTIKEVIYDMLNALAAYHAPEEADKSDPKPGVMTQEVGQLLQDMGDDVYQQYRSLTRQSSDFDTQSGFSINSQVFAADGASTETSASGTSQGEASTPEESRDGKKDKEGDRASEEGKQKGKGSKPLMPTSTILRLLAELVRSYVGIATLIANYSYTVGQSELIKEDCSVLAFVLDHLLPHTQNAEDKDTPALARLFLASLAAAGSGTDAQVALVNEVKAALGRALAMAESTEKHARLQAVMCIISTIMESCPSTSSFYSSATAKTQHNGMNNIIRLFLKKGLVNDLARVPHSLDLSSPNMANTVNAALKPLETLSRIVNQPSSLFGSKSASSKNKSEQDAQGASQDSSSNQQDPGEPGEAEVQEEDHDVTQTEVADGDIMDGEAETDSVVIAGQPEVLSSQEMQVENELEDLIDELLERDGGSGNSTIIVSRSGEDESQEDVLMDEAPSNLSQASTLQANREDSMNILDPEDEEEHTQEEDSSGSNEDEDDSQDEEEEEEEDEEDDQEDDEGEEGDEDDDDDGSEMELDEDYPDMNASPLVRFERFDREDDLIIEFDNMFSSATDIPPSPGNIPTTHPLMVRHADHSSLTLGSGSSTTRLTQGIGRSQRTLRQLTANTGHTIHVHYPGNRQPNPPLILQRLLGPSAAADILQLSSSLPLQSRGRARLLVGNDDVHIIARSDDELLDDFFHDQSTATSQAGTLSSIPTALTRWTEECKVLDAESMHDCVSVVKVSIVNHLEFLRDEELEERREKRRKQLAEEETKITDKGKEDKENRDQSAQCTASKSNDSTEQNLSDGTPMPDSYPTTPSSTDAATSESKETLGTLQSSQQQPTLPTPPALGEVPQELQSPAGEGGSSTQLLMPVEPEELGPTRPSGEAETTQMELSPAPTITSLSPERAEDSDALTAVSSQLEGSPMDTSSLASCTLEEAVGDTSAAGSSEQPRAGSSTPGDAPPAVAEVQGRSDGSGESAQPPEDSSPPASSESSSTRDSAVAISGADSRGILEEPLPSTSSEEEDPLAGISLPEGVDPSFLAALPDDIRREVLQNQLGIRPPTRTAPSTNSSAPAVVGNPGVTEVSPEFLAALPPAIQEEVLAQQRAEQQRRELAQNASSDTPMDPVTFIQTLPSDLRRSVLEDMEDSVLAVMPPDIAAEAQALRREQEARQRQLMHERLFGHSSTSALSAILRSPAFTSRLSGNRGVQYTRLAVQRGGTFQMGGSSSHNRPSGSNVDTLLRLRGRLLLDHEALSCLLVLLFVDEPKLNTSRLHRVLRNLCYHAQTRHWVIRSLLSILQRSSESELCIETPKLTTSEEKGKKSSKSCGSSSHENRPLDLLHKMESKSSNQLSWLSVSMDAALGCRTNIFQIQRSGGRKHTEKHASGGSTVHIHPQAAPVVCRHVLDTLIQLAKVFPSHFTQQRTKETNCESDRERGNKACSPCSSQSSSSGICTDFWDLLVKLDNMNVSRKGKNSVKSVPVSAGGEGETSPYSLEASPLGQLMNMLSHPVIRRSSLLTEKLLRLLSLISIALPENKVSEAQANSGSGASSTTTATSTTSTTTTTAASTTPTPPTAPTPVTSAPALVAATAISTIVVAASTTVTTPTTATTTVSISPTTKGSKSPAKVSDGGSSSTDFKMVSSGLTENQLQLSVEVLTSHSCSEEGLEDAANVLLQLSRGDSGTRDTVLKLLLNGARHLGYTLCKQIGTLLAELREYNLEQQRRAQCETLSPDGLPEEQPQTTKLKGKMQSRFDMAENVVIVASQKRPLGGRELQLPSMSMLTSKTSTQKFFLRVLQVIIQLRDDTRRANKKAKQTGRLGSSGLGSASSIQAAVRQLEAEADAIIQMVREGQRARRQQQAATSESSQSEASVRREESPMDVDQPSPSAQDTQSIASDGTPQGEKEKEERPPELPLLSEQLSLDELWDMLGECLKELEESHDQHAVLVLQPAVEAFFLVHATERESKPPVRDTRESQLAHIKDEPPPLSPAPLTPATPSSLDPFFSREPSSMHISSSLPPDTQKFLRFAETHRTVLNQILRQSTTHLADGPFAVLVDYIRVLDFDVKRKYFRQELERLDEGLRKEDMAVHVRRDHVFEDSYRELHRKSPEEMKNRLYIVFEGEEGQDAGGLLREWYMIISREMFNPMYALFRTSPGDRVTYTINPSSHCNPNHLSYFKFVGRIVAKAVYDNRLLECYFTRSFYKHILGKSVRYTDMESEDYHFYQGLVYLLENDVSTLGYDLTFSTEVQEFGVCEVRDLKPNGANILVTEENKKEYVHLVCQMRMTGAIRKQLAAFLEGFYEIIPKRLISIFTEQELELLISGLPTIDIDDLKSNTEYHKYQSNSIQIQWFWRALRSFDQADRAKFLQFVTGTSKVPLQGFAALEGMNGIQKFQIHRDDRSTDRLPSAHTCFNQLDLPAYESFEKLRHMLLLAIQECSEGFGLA

What was measured:
[1] = molecular target: MDM2 (endogenous) (human) (UniProt Q00987); assay: co-immunoprecipitation with anti-HA from transfected BT474 cells, immunoblot for MDM2
PP5 (endogenous) (human) = molecular target: T1, PP5 (endogenous) (human) (UniProt P53041); assay: co-immunoprecipitation with anti-HA from transfected BT474 cells, immunoblot for PP5
T1 sequence (looked up): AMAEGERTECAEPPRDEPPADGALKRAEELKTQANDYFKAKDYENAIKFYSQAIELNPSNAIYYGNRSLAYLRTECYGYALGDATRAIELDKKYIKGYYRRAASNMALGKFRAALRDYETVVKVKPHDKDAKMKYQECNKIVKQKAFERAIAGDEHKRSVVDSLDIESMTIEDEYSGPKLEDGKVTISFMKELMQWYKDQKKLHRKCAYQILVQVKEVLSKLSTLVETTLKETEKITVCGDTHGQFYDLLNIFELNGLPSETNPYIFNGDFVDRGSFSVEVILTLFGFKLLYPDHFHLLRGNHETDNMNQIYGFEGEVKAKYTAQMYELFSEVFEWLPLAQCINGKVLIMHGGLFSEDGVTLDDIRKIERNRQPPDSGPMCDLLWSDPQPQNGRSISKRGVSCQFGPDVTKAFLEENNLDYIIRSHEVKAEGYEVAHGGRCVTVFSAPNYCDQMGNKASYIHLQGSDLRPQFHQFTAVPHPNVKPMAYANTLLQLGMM

Row | Substance | binding [1] | binding (PP5 (endogenous) (human))
1 | HA-Huwe1^1-2474 (from UniProt Q7Z6Z7 1-2474) (enzyme) | binds | –
2 | HA-Huwe1 wild type (full-length) (from UniProt Q7Z6Z7 1-4374) (enzyme) | binds | binds
